Values from PubChem BioAssay AID493246 (Drosophila RNAi Screening Center, 2011).

Test: 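Identify essential fly genes by loss of cell viability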 (primary screen)
Cell system: Drosophila Kc and S2R+ cells
Knock-down reagent: long dsRNA against Drosophila genes
Read-out: 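Cell number per well after knock-down, printed as raw plate values; calls were based on per-plate z-scores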
Scale: Kc cell number and S2R+ cell number: higher = more cells remaining
Rule for the call: 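Active when the per-plate z-score of cell number is 3 or more in the direction of fewer cells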
In all, the deposit lists about 21,000 reagents; shown is a random part of those that have a named target and a result. In the full data, 429 (2%) are marked active. 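Values are raw and not normalised between plates; calls rest on per-plate z-scores that were not deposited.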 A number with no mark means an inactive call. No sequences are given here. The record does not give: the amount of reagent, the time to read-out.

CG7879 [DRSC08600] | Kc cell number, rep 1 = 1.41e6; Kc cell number, rep 2 = 1.51e6; S2R+ cell number, rep 1 = 1.12e6; S2R+ cell number, rep 2 = 1.11e6
CG15890 [DRSC19737] | Kc cell number, rep 1 = 1.42e6; Kc cell number, rep 2 = 1.45e6; S2R+ cell number, rep 1 = 1.10e6; S2R+ cell number, rep 2 = 1.12e6
CG10962 [DRSC18421] | Kc cell number, rep 1 = 5.74e5; S2R+ cell number, rep 1 = 8.95e5
Imp (IGF-II mRNA-binding protein) [DRSC18861] | Kc cell number, rep 1 = 1.27e6; Kc cell number, rep 2 = 1.67e6; S2R+ cell number, rep 1 = 1.23e6; S2R+ cell number, rep 2 = 1.26e6
Imp (IGF-II mRNA-binding protein) [DRSC20255] | Kc cell number, rep 1 = 7.02e5; S2R+ cell number, rep 1 = 9.34e5
CG6867 [DRSC20013] | Kc cell number, rep 1 = 1.57e6; Kc cell number, rep 2 = 1.57e6; S2R+ cell number, rep 1 = 1.03e6; S2R+ cell number, rep 2 = 1.18e6
Tomosyn [DRSC19365] | Kc cell number, rep 1 = 4.75e5; S2R+ cell number, rep 1 = 8.77e5
Tomosyn [DRSC19692] | Kc cell number, rep 1 = 1.55e6; Kc cell number, rep 2 = 1.61e6; S2R+ cell number, rep 1 = 1.02e6; S2R+ cell number, rep 2 = 1.24e6
Tomosyn [DRSC19782] | Kc cell number, rep 1 = 5.91e5; S2R+ cell number, rep 1 = 8.80e5
Tomosyn [DRSC19842] | Kc cell number, rep 1 = 1.51e6; Kc cell number, rep 2 = 1.60e6; S2R+ cell number, rep 1 = 1.00e6; S2R+ cell number, rep 2 = 1.16e6
Or83a (Odorant receptor 83a) [DRSC12357] | Kc cell number, rep 1 = 1.59e6; Kc cell number, rep 2 = 1.73e6; S2R+ cell number, rep 1 = 1.38e6; S2R+ cell number, rep 2 = 1.51e6
CalpC (Calpain C) [DRSC19873] | Kc cell number, rep 1 = 1.60e6; Kc cell number, rep 2 = 1.61e6; S2R+ cell number, rep 1 = 1.21e6; S2R+ cell number, rep 2 = 1.29e6
CG10492 [DRSC02064] | Kc cell number, rep 1 = 1.09e6; Kc cell number, rep 2 = 1.17e6; S2R+ cell number, rep 1 = 8.69e5; S2R+ cell number, rep 2 = 8.98e5
CG13738 [DRSC10065] | Kc cell number, rep 1 = 1.75e6; Kc cell number, rep 2 = 1.60e6; S2R+ cell number, rep 1 = 1.02e6; S2R+ cell number, rep 2 = 1.12e6
CG7101 [DRSC20023] | Kc cell number, rep 1 = 1.59e6; Kc cell number, rep 2 = 1.60e6; S2R+ cell number, rep 1 = 1.17e6; S2R+ cell number, rep 2 = 1.29e6
CG34338 [DRSC17535] | Kc cell number, rep 1 = 1.32e6; Kc cell number, rep 2 = 1.38e6; S2R+ cell number, rep 1 = 1.02e6; S2R+ cell number, rep 2 = 1.06e6
rogdi [DRSC10906] | Kc cell number, rep 1 = 1.55e6; Kc cell number, rep 2 = 1.54e6; S2R+ cell number, rep 1 = 1.20e6; S2R+ cell number, rep 2 = 1.16e6
CG14764 [DRSC05072] | Kc cell number, rep 1 = 1.38e6; Kc cell number, rep 2 = 1.42e6; S2R+ cell number, rep 1 = 9.52e5; S2R+ cell number, rep 2 = 1.12e6
CG14764 [DRSC06498] | Kc cell number, rep 1 = 1.33e6; Kc cell number, rep 2 = 1.47e6; S2R+ cell number, rep 1 = 1.09e6; S2R+ cell number, rep 2 = 1.09e6
CG14764 [DRSC06844] | Kc cell number, rep 1 = 1.44e6; Kc cell number, rep 2 = 1.49e6; S2R+ cell number, rep 1 = 1.29e6; S2R+ cell number, rep 2 = 1.46e6
mRpL39 (mitochondrial ribosomal protein L39) [DRSC10255] | Kc cell number, rep 1 = 1.17e6; Kc cell number, rep 2 = 1.31e6; S2R+ cell number, rep 1 = 1.09e6; S2R+ cell number, rep 2 = 1.26e6
pcx (pecanex) [DRSC18186] | Kc cell number, rep 1 = 1.45e6; Kc cell number, rep 2 = 1.50e6; S2R+ cell number, rep 1 = 1.09e6; S2R+ cell number, rep 2 = 1.18e6
pcx (pecanex) [DRSC18187] | Kc cell number, rep 1 = 1.52e6; Kc cell number, rep 2 = 1.55e6; S2R+ cell number, rep 1 = 1.04e6; S2R+ cell number, rep 2 = 1.22e6
pcx (pecanex) [DRSC18188] | Kc cell number, rep 1 = 1.47e6; Kc cell number, rep 2 = 1.51e6; S2R+ cell number, rep 1 = 1.03e6; S2R+ cell number, rep 2 = 1.13e6
pcx (pecanex) [DRSC18189] | Kc cell number, rep 1 = 1.53e6; Kc cell number, rep 2 = 1.47e6; S2R+ cell number, rep 1 = 1.00e6; S2R+ cell number, rep 2 = 1.21e6
pcx (pecanex) [DRSC18190] | Kc cell number, rep 1 = 1.57e6; Kc cell number, rep 2 = 1.60e6; S2R+ cell number, rep 1 = 9.78e5; S2R+ cell number, rep 2 = 1.15e6
pcx (pecanex) [DRSC18816] | Kc cell number, rep 1 = 5.15e5; S2R+ cell number, rep 1 = 8.57e5

An excerpt from above, limited to “S2R+ cell number, rep 1”.
CG10962 [DRSC18421]: 8.95e5
Imp (IGF-II mRNA-binding protein) [DRSC18861]: 1.23e6
Imp (IGF-II mRNA-binding protein) [DRSC20255]: 9.34e5
